Laboratory results: the supplement of paper PMC10849652
The other results are listed elsewhere or left out.

By UniProt entry, the sequences of proteins in these tests, tags left out. Where a name states a change or a piece, a line headed by the entry shows the natural chain unless it says otherwise.
UniProt O43143: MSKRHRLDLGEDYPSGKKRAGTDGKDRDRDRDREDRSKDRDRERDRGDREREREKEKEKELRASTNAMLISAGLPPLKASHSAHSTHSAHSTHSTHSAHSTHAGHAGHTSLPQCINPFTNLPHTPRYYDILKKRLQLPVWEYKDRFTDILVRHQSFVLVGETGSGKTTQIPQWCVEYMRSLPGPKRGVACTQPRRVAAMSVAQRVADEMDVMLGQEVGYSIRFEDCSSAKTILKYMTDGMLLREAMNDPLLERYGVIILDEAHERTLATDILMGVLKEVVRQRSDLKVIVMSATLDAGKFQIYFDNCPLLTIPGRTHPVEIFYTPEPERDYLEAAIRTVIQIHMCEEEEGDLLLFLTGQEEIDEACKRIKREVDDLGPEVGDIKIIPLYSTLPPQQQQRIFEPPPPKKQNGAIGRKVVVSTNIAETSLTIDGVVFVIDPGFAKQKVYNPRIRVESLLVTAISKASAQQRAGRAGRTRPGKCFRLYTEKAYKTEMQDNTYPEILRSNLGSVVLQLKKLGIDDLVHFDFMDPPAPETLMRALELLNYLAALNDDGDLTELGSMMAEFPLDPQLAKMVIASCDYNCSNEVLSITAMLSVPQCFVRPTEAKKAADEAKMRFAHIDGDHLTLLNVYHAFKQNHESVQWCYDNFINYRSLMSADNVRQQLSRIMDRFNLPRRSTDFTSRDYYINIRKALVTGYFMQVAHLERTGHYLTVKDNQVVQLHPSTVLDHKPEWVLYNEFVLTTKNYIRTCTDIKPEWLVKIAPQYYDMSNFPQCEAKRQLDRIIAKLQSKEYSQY
UniProt P26196: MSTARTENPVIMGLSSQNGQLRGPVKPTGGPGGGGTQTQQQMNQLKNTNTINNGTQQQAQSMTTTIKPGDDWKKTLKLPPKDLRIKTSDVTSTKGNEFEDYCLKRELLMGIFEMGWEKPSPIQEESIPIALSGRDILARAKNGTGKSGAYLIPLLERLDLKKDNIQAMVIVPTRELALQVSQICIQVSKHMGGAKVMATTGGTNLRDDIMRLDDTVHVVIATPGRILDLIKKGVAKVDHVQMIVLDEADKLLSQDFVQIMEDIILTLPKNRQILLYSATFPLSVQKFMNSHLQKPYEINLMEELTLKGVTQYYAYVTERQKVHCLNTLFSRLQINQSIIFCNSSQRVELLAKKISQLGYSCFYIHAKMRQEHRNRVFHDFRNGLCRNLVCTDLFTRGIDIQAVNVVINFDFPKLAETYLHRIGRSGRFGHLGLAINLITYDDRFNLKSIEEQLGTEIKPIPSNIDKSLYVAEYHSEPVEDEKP
UniProt Q96HY7: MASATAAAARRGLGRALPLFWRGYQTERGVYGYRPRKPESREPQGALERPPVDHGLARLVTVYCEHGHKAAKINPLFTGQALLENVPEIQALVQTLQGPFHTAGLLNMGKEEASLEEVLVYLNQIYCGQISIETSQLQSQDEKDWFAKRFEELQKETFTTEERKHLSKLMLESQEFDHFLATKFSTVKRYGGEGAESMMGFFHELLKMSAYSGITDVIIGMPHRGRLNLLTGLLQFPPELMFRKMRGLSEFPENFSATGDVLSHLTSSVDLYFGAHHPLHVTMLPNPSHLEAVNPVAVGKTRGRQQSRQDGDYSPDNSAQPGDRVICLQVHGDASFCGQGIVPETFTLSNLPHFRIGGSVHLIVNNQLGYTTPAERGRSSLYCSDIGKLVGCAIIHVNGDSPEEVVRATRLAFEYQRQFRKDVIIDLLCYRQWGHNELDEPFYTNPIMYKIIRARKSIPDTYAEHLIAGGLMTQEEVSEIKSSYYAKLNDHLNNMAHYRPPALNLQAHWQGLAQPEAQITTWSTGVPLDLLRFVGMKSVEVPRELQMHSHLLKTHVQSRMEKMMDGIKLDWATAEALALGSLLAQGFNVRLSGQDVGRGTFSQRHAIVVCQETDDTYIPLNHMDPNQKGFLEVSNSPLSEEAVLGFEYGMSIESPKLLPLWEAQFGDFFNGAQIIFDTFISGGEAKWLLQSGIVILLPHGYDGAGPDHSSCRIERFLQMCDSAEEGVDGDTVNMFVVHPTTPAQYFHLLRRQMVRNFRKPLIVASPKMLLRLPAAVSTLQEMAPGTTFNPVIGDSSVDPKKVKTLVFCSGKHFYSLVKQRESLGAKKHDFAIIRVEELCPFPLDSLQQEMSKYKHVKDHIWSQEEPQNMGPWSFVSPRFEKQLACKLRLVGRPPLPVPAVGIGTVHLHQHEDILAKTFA
UniProt P0CG22: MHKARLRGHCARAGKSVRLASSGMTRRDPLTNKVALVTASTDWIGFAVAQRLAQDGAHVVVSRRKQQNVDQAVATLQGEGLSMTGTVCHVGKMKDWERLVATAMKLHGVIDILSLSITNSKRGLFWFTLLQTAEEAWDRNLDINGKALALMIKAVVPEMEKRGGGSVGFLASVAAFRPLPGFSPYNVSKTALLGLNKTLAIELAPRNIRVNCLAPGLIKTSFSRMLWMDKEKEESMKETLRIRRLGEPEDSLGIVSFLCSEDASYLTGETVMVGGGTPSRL
UniProt Q5TDH0: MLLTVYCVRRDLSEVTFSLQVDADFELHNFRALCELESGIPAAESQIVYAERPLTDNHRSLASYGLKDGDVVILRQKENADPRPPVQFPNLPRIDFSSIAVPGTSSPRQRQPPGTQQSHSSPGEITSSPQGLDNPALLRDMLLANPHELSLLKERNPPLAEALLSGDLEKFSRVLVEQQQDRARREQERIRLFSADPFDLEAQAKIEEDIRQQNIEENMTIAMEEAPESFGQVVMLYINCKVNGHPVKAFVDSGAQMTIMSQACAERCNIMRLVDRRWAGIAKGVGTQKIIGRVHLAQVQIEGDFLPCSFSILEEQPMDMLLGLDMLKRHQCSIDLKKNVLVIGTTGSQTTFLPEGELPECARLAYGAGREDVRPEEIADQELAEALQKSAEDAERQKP
UniProt Q15700, whole entry, looked up: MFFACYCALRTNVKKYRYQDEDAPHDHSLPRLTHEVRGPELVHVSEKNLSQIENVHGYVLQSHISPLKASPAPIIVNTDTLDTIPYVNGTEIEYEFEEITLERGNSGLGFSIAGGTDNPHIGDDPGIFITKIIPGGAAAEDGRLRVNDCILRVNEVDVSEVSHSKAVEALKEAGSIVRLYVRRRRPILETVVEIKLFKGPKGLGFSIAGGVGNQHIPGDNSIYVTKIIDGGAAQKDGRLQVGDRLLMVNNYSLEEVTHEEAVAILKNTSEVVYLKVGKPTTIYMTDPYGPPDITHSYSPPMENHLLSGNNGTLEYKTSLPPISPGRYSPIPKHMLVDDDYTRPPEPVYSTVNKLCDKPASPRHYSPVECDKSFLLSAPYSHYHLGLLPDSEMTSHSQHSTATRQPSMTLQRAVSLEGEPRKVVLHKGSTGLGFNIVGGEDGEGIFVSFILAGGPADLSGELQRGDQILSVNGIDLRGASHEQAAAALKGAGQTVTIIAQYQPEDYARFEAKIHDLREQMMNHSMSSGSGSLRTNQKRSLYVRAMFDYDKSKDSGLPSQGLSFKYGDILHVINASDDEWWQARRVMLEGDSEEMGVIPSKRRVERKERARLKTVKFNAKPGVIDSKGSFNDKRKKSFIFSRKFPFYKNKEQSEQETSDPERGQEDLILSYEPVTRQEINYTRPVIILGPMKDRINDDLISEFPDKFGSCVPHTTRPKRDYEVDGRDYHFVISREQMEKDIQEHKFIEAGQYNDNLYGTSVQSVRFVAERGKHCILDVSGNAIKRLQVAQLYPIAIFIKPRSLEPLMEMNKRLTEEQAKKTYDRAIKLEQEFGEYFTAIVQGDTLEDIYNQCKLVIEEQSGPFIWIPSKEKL
UniProt Q9UMR2: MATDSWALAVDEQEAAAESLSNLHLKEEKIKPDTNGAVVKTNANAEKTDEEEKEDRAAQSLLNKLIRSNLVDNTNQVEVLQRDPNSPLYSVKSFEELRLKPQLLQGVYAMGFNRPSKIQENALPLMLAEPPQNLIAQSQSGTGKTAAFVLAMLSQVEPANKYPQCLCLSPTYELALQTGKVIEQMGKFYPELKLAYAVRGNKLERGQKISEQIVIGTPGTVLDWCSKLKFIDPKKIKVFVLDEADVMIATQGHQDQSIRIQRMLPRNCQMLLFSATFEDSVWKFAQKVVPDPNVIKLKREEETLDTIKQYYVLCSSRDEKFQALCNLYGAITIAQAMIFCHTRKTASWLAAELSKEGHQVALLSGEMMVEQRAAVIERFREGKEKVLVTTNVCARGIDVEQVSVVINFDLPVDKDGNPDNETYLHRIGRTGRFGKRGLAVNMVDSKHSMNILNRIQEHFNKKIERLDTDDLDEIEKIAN

What follows are targets tested with c1cn2cc(-c3ccc4cn[nH]c4c3)nc(Nc3ccc(N4CCOCC4)cc3)c2n1 [entospletinib] (assay: log2 fold change, soluble protein after heating vs DMSO (PISA); higher = thermal stabilisation; K562 cells, 10 uM, 30 min; active = over 0.2 and 3.5 SD of the protein, either way, in both replicates (recomputed)).
Procedure, shortened: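 K562 cells at 2×10^6 cells/mL were given 10 μM compound for 30 min. Aliquots then went through 3 min of heating across 48°C-58°C, were pooled, and were extracted in PBS with 0.5% NP-40 at 4°C, and the supernatant after 21,000xg for 90 min was quantified by TMTpro 16plex LC-MS/MS with channel sums equalised. Thermal stability relative to control samples, from duplicates, is given as log2 fold change.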

log2 fold change, inactive:
DHX15 (UniProt O43143) -0.039
DDX6 (UniProt P26196) 0.045
DHTKD1 (UniProt Q96HY7) -0.046
DHRS4L1 (UniProt P0CG22) 0.088
DDI2 isoform 3 (UniProt Q5TDH0) 0.032
DLG2 isoform 2 (UniProt Q15700) 0.079
DDX19B (UniProt Q9UMR2) -0.046
